The nature of this data set: soluble on expression in E. coli; label from the status in PepcDB or PDB records.

As to “MADKPARSKQIETEMTLEQVKEQLTELGKKRGVLTYEEIAERMNGFEIESDQMDEYYEYLGEQGIDLVGDNDEGPNNHQITKTEEEFDLNDLSVPPGVKINDPVRMYLKEIGRVDLLSAEEEIRLATRIEEGDEEAKRRLAEANLRLVVSIAKRYVGRGMLFLDLIQEGNMGLIKAVEKFDYRKGFKFSTYATWWIRQAITRAIADQARTIRIPVHMVETINKLIRVQRQLLQDLGREPSPEEIGEEMDLAPEKVREILKIAQEPVSLETPIGEEDDSHLGDFIEDQEATSPADHAAYELLKEQLEDVLDTLTDREENVLRLRFGLDDGRTRTLEEVGKVFGVTRERIRQIEAKALRKLRHPSRSKRLKDFLE”, the “soluble on expression in E. coli” value is “not soluble”.

As to “ARGPAPRLLRPRLSSRASSARRRRARLPGGCGAPGSAARGPRGAGRRRRGARGSGRGACTMNYQQQLANSAAIRAEIQRFESVHPNIYSIYELLERVEEPVLQNQIREHVIAIEDAFVNSQEWTLSRSVPELKVGIVGNLASGKSALVHRYLTGTYVQEESPEGGRFKKEIVVDGQSYLLLIRDEGGPPEAQFAMWVDAVIFVFSLEDEISFQTVYHYYSRMANYRNTSEIPLVLVGTQDAISSANPRVIDDARARKLSNDLKRCTYYETCATYGLNVERVFQDVAQKIVATRKKQQLSIGPCKSLPNSPSHSSVCSAQVSAVHISQTSNGGGSLSDYSSSVPSTPSISQKELRIDVPPTANTPTPVRKQSKRRSNLFTSRKGSDPDKEKKGLESRADSIGSGRAIPIKQGMLLKRSGKSLNKEWKKKYVTLCDNGVLTYHPSLHDYMQNVHGKEIDLLRTTVKVPGKRPPRATSACAPISSPKTNGLSKDMSSLHISPNSDTGLGDSVCSSPSISSTTSPKLDPPPSPHANRKKHRRKKSTSNFKADGLSGTAEEQEENFEFIIVSLTGQTWHFEATTYEERDAWVQAIESQILASLQSCESSKNKSRLTSQSEAMALQSIRNMRGNSHCVDCETQNPNWASLNLGALMCIECSGIHRNLGTHLSRVRSLDLDDWPIELIKVMSSIGNELANSVWEESSQGRTKPSVDSTREEKERWIRAKYEQKLFLAPLPCTELSLGQHLLRATADEDLRTAILLLAHGSRDEVNETCGEGDGRTALHLACRKGNVVLAQLLIWYGVDVTARDAHGNTALAYARQASSQECIDVLLQYGCPDERFVLMATPNLSRRNNNRNNSSGRVPTII”, the “soluble on expression in E. coli” value is given as “soluble”.

With “MRILSLRFENINSLKGSWKIDFSEAPFDNNGLFAITGPTGAGKTTILDAICLALYHQTPRLTVSKKQNQLMTRHTSHCMAEVEFEVRGQGYRAFWSQKRARNKLDGNLLEPVAELAKLDGTIVSDKLKMVRSDISELTGLNFSRFTKSMMLSQGEFAAFLTSQPNDRAQLLEQLTGTEIYGDISKQVFDNHRSASEALKLLQAQSQGVSLLDDEQVKALEQQLTEITEQEKTV”, the “soluble on expression in E. coli” value is given as “not soluble”.

Regarding “MSKRDYYEVLGVERGATEADLKKAYRRLAMKYHPDRNPGDKESEDKFKEANEAYEVLSDASKRAAFDQYGHAGVDPSMGGGGAGFGGANFSDIFGDVFSDFFGGGGRGGGRGGAQRGSDLRYTLELNLEEAVRGTTVSIRVPTLVNCQPCDGSGAKKGSTPSTCPTCGGIGQVRMQQGFFSVQQTCPRCHGQGKIITDPCTSCHGEGRVEEYKTLSVKVPAGVDTGDRIRLSGEGEAGTHGGPTGDLYVVISVREHEIFQRDGKHLYCEVPISYTDAALGGELEVPTLDGRVKLKIPEGTQTGKQFRLRGKGVAPVRGGGAGDLLCRVAVETPVNLSRRQRELLEELRDSLEGDSSHSPKASGWFDGVKRFFGDLLEHHHHHH”, the “soluble on expression in E. coli” value is reported as “soluble”.

As to “FVNIGERCNVAGSRKFLRLVNEKKYDEALSIARQQVEDGALVIDVNMDDGLLDARTEMTTFLNLIMSEPEIARVPVMIDSSKWEVIEAGLKCLQGKSIVNSISLKEGEEVFLEHARIIKQYGAATVVMAFDEKGQADTAARKIEVCERAYRLLVDKVGFNPHDIIFDPNVLAVATGIEEHNNYAVDFIEATGWIRKNLPGAHVSGGVSNLSFSFRGNNYIREAMHAVFLYHAIQQGMDMGIVNPGTSVLYSDIPADTLEKIEDVVLNRRPDAAERLIELAEA”, the “soluble on expression in E. coli” value is listed as “not soluble”.

Consider “MPLLLCPNCQVGMREVERRGVLIDVCPQCGGVWLDKGELEKLLAEAEEVERRYEEELEGFYRKEGKPYKRKKGFMKLFDLFD”, for which the “soluble on expression in E. coli” value is on record as “soluble”.

On to “MLPWQRQVPTSIFPQSNEQVFRMMLAQQHLQLQNFLQQRKMALLAMNPEIPMITDLKKAKFDFTHMADSIESEQKIKEESVSPKMSPTLTTAAVRPFVPYDQPWFMIPGRGRTTGRAARPKKEFICKYCDRHFTKSYNLLIHERTHTDERPYSCDVCGKAFRRQDHLRDHKYIHQKDRPFKCEICGKGFCQSRTLLVHRATHDPNRHSIGAPVVPIKSETPLPELDPRVTLILQNLTDSFNSTSMTSPQISPDR”, for which the “soluble on expression in E. coli” value is recorded as “not soluble”.

Consider “MNRRIQLVEEELDRAQERLATALQKLEEAEKAADESERGMKVIESRAQKDEEKMEIQEIQLKEAKHIAEDADRKYEEVARKLVIIESDLERAEERAELSEGKCAELEEELKTVTNNLKSLEDKVEELLSKNYHLENEVARLKKLVGE”, for which the “soluble on expression in E. coli” value is on record as “soluble”.

“MAMTGSTPCSSMSNHTKERVTMTKVTLENFYSNLIAQHEEREMRQKKLEKVMEEEGLKDEEKRLRRSAHARKETEFLRLKRTRLGLEDFESLKVIGRGAFGEVRLVQKKDTGHVYAMKILRKADMLEKEQVGHIRAERDILVEADSLWVVKMFYSFQDKLNLYLIMEFLPGGDMMTLLMKKDTLTEEETQFYIAETVLAIDSIHQLGFIHRDIKPDNLLLDSKGHVKLSDFGLCTGLKKAHRTEFYRNLNHSLPSDFTFQNMNSKRKAETWKRNRRQLAFSTVGTPDYIAPEVFMQTGYNKLCDWWSLGVIMYEMLIGYPPFCSETPQETYKKVMNWKETLTFPPEVPISEKAKDLILRFCCEWEHRIGAPGVEEIKSNSFFEGVDWEHIRERPAAISIEIKSIDDTSNFDEFPESDILKPTVATSNHPETDYKNKDWVFINYTYKRFEGLTARGAIPSYMKAAK”: the “soluble on expression in E. coli” value is recorded as “not soluble”.

“MAHHHHHHMQEIAAAEPPFACTPALVLIISEPKHAQTLLRAANLHLPLDQTEGGHLKRLRPRRCVTRVPLTEPQSLPPATPPSSLELLLALQPLERCGAAHTASVFTSAASSSCDAIGGTGANSGAAGSGHAALEHRLLWPLTRAEASLCAEQVLTLLSSDLASASRVVPFRAFVEAASAVTAENSAACGTRQQAIGICVRNDDTEGYTSTSSSPRVGDDTAAASDAAAAPCGSLAFQIMSVPATAPRSDPAEWASANRVWPLAVPRPHAPTLPSAAWTAEVCGNMVKHVFPLCRGLHRVCKARDQHVRASRLSLERGVEEFSKAASSPQISGAEEEAVVGAKEPSGLLDIVAVVIDPSTGRVVATSSGCTSMRVDNPVATAPYCGIVAETPCSERTVSWKRQRAVAPQQPRLILEHPVMYALKQLAAVQQQQEHHRQTMQPSPGTAGAFTAPGSLEPGPSSAVTAEDARHANSTRPYLANGLDLYVTHEPCVMCAMALVHSRIQRVFFLFRNAVHGGLGGRYHLHSMASLNHHFSAYECTEAAELYTTL”: the “soluble on expression in E. coli” value is listed as “not soluble”.

As for “MGLLTKVATSRQFSTTRCVAKKLNKYSYIITEPKGQGASQAMLYATGFKKEDFKKPQVGVGSCWWSGNPCNMHLLDLNNRCSQSIEKAGLKAMQFNTIGVSDGISMGTKGMRYSLQSREIIADSFETIMMAQHYDANIAIPSCDKNMPGVMMAMGRHNRPSIMVYGGTILPGHPTCGSSKISKNIDIVSAFQSYGEYISKQFTEEEREDVVEHACPGPGSCGGMYTANTMASAAEVLGLTIPNSSSFPAVSKEKLAECDNIGEYIKKTMELGILPRDILTKEAFENAITYVVATGGSTNAVLHLVAVAHSAGVKLSPDDFQRISDTTPLIGDFKPSGKYVMADLINVGGTQSVIKYLYENNMLHGNTMTVTGDTLAERAKKAPSLPEGQEIIKPLSHPIKANGHLQILYGSLAPGGAVGKITGKEGTYFKGRARVFEEEGAFIEALERGEIKKGEKTVVVIRYEGPRGAPGMPEMLKPSSALMGYGLGKDVALLTDGRFSGGSHGFLIGHIVPEAAEGGPIGLVRDGDEIIIDADNNKIDLLVSDKEMAQRKQSWVAPPPRYTRGTLSKYAKLVSNASNGCVLDA”, the “soluble on expression in E. coli” value is recorded as “not soluble”.

Turning to “MSLAQTPMPQFVSKDGKHALMVDGAPFLILGAQVNNSSNYPGIMDKVWPAMQVLGPNTVQVPIAWEQVEPEEGRFDFSFVDTLLNQAREHKVRLVLLWFATWKNNGPQYAPHWVKTDNQRFPRVVTREGKSIGSLSPHAQATLDADRKAFVAFMQHLKKVDPQHTVIMIQPENEAGTYGSVRDFSPMAQKLFDGQVPDELIKRMNKQPGTWAQVFGADADEIFHAWSIGRYIDQIAQAGKAEYPLPMYVNAALRGPFNPGQPGQYASGGPTDNVLDVWKAAGPHIDLLAPDIYMPEYRMYTTVLERYARPDNALFVAETGNRPEYARYLYPTLGHNGIGWSAFGIDYTRYSNYPLGAKHVNEETLAPFALGFQAVSMGMRPFAKAASEGKLHGTAEEPGQAVQELKLNDRWSATITYGVPQFWFKGEPPGNPEPIGAALIAELSPDEFLVTGYHARVTLHPASDATANMIYDRVEEGVYEGNDWKFQRNWNGDQTDYGVNFSSVPQLLKIKLATYKEGHHHHHH”, the “soluble on expression in E. coli” value is “soluble”.

Take “MPEYRSKTSTHGRNMAGARALWRATGVMETDFGKPIIAVANSFTQFVPGHVHLHNMGQLVAREIEKAGAIAKEFNTIAIDDGIAMGHSGMLYSLPSRDLIADSIEYMVNAHCADALVCISNCDKITPGMLIAAMRLNIPTIFVSGGPMEAGKVIGVANIQPERRLDLIDAMIESADDNVSNRQVEEVEQNACPTCGSCSGMFTANSMNCLTEALGLSLPGNGSYLATHAGRKELFLEAGRMIVEITKRYYEQNDETVLPRSIATKKAFENAMTMDIAMGGSTNTILHLLAVANEAGVDFKMADIDRLSRVVPCICKTAPNNHDYYMEDVHRAGGIFAILKELDKAGKLHTDVHTIHAPTLKDAIEQWDVTNPENTRAIERFKAAPGGVRTTQAFSQNRMWKTLDLDREKGCIRDVAHAYSQDGGLAVLFGNIAERGCVVKTAGVDESILKFTGRARVFESQEDAVEGILGNQIVAGDIVIIRYEGPKGGPGMQEMLYPTSYLKSKGLGKACALLTDGRFSGGTSGLSIGHASPEAAEGGAIGLVHEGDTVEIDIPNRSIHLAISDEELAARRAEMEARGSKAWKPKNRDRYVSAALRAYGAMATSADKGAVRDVAQIER”: the “soluble on expression in E. coli” value is listed as “not soluble”.

Regarding “MNNKSQGTVKFFNEQKGFGFITPENGGKDVFVHISKLNGETLAEGQQVTFETQEGRKGPEAINIEVL”, the “soluble on expression in E. coli” value is “not soluble”.

Consider “MNNRLEECGMLPAYIKIHDAIKKDIDLGIWPIGSRLPSERHLAEHFTVSRMTLRQAITLLVEEGILERRIGSGTYVASHRVQEKMRGTTSFTEIIRSQGRQPSSKLLSYQKQLASDTEVKELNLDKTDLVIRMERIRYADSVPLVYEIASIPEKFIKTVKRADITEHFFHSLIANGYEIGKSKQTIYAKLASERVASYLEVAKGHAILALTQVSYFTDGKPFEYVRSQYIGDRFEFYLENN”, for which the “soluble on expression in E. coli” value is on record as “not soluble”.

On to “MGSDKIHHHHHHMRSDEVKKGIDRVAHRALLKALGVTDDEMDKPFIGVANAYNTIVPGHMTLDKLTQAVKEGVYAAGGVPFEFGIIGICDGIAMGHEGMCFSLPSRELVADTIEAMVEAHRFDGLVVVASCDKIIPGMLMAMLRLNIPAIAVTGGPMPYERVGGEKVSIKDAFEAAGMYKAGKLDDAGLKLYEDYCAPYCGSCQGLYTANSMQILTETLGLSLPYCSTSPCPSSRKLRIAKQSGKRVVELVMQNIKPLDFVNERSFENAITMDMLVGGSTNTVLHLPAIAKEAGIRLSLDLFDEISRRTPHIVSIDPASKEMVVDLDESGGVPMLIKKARKYFHDEMTVSGKTLYEIAEMAVLRGRDIIASPDNPLHKEGGIAILKGNLAENGAVIKAAAVSEDMMRFEGTAKVYDSEKEALNAILDGKVEEGDVVVIRYMGPKGAPGMPEMLLPTAAISGLGLQKVALITDGRFSGATRGPCIGHVSPEAAVGGNIALVEDGDKISIDIPARKLEVKLSDEELAERRAKWKPKEKELKGYLAKYAKLVRGAEEGAALL”, for which the “soluble on expression in E. coli” value is listed as “not soluble”.

The record behind these values is the DeepSol protein solubility set.
